The list shows a part of the results. This data set is noisy: repeats of one test often differ as much as different tests do.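 Flies heterozygous for the ATM8 allele over a balancer chromosome carrying normal ATM were mated with each other on treated food. Parents laid eggs for 5–6 days and the young then developed for about 12 days, so both parents and larvae ate the compound. The read-out is the share of all emerged adults that carry two ATM8 copies, compared with 2% DMSO control vials. The paper called compounds neutral at 10–20% such offspring, harmful below 10%, and helpful above 20%.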
What follows are compounds tested on Drosophila melanogaster ATM8 (temperature-sensitive ATM allele) (assay: fraction of eclosed F1 progeny that are homozygous ATM8 (rescue of developmental lethality); higher = more rescue of ATM8 developmental lethality; extreme values may be limits of the assay). Details: compound concentration applied to food 0.2 mM; 21 °C.

| Structure (SMILES) | fraction of eclosed F1 progeny that are homozygous ATM8 |
| --- | --- |
| CCCc1nn(C)c2c(=O)[nH]c(-c3cc(S(=O)(=O)N4CCN(C)CC4)ccc3OCC)nc12 | 0 |
| C[C@@H]1CN(c2c(F)c(F)c3c(=O)c(C(=O)O)cn(C4CC4)c3c2F)C[C@H](C)N1 | 0.259 |
| CCCCS(=N)(=O)CCC(N)C(=O)O (centres undefined) | 0.211 |
| CCOC(=O)CC(=O)N1CCSC1COc1ccccc1OC (centres undefined) | 0.121 |
| CC(=O)Oc1ccc(C(c2ccc(OC(C)=O)cc2)c2ccccn2)cc1 | 0.174 |
| CCc1nn(CCCN2CCN(c3cccc(Cl)c3)CC2)c(=O)n1CCOc1ccccc1 | 0.121 |
| Cc1ccc(/N=C/N(C)/C=N/c2ccc(C)cc2C)c(C)c1 | 0.18 |
| O=c1c2ccccc2[se]n1-c1ccccc1 | 0.105 |
| O=S(=O)(c1cccc2cnccc12)N1CCCNCC1 | 0.05 |
| c1ccc2c(c1)Nc1ccccc1S2 | 0.103 |
| CCCNC(C)(C)COC(=O)c1ccccc1 | 0.0864 |
| C[C@]12CC[C@H]3[C@@H](CCC4=CC(=O)CC[C@@]43C)[C@@H]1CC[C@@H]2O | 0.111 |
| C=C[C@@]1(C)CC(=O)[C@@]2(O)[C@](C)(O1)[C@@H](O)[C@@H](O)C1C(C)(C)CC[C@H](O)[C@@]12C (some centres undefined) | 0.3 |
| NC1CCN(c2c(F)cc3c(=O)c(C(=O)O)cn(C4CC4)c3c2Cl)C1 (centres undefined) | 0.0625 |
| CC(=O)Nc1ccc(OC(C)=O)cc1 | 0.128 |
| NC[C@@H]1O[C@H](O[C@H]2[C@@H](O)[C@H](O[C@@H]3[C@@H](O)[C@H](N)C[C@H](N)[C@H]3O[C@H]3O[C@H](CN)[C@@H](O)[C@H](O)[C@H]3N)O[C@@H]2CO)[C@H](N)[C@@H](O)[C@@H]1O | 0.18 |
| CCC1(C)CC(=O)NC1=O (centres undefined) | 0.326 |
| NC(Cc1ccc(Cl)cc1)C(=O)O (racemic) | 0.128 |
| CC(NCCc1ccc(O)cc1)C(O)c1ccc(O)cc1 (centres undefined) | 0.0857 |
| C[C@]12CCC(=O)C[C@@H]1CC[C@@H]1[C@@H]2CC[C@]2(C)C(=O)CC[C@@H]12 [5alpha-ANDROSTAN-3,17-DIONE] | 0.125 |
| O=C(NC(Cc1cc(=O)[nH]c2ccccc12)C(=O)O)c1ccc(Cl)cc1 (centres undefined) | 0.222 |
| COc1cc(O)cc(OC)c1OC | 0.0294 |

Already shown: an excerpt of the list.

| Structure (SMILES) | fraction of eclosed F1 progeny that are homozygous ATM8 |
| --- | --- |
| CCc1nn(CCCN2CCN(c3cccc(Cl)c3)CC2)c(=O)n1CCOc1ccccc1 | 0.121 |
| Cc1ccc(/N=C/N(C)/C=N/c2ccc(C)cc2C)c(C)c1 | 0.18 |
| O=c1c2ccccc2[se]n1-c1ccccc1 | 0.105 |

Further compounds follow.

| Structure (SMILES) | fraction of eclosed F1 progeny that are homozygous ATM8 |
| --- | --- |
| COC(=O)/C=C/C(=O)OC | 0.143 |
| COC(=O)[C@H]1[C@H]2C[C@H]3c4[nH]c5cc(OC)ccc5c4CCN3C[C@H]2C[C@@H](OC(=O)c2cc(OC)c(OC)c(OC)c2)[C@@H]1OC | 0.146 |
| C[N+](C)(C)CCOC(N)=O | 0.129 |
| CC(C)(C)NC[C@H](O)COc1cccc2c1CCCC2=O | 0.286 |
| CCOC(=O)C1=C(C)NC(C)=C(C(=O)OC)C1c1cccc(Cl)c1Cl (centres undefined) | 0.145 |
| C[C@]12CC[C@H](O)C[C@H]1CC[C@@H]1[C@@H]2CC[C@]2(C)[C@@H](C3=CC(=O)OC3)[C@@H](O)C[C@]12O | 0.093 |
| CC(=O)O[C@H]1C[C@@H]2CC[C@@H]3[C@H](CC[C@@]4(C)[C@H]3C[C@H]([N+]3(C)CCCCC3)[C@@H]4OC(C)=O)[C@@]2(C)C[C@@H]1[N+]1(C)CCCCC1 | 0.02 |
| O=C1c2c(O)ccc(O)c2C(=O)c2c(NCCNCCO)ccc(NCCNCCO)c21 | 0.0448 |
| C[C@H]1[C@H](C)CC[C@]2(C(=O)O)CC[C@]3(C)C(=CC[C@@H]4[C@@]5(C)C[C@@H](O)[C@H](O)[C@@](C)(CO)[C@@H]5[C@H](O)C[C@]43C)[C@H]12 | 0.103 |
| COc1ccc(-c2coc3cc(O)ccc3c2=O)c(OC)c1 | 0.263 |
| N[C@@H](Cc1ccc(O)c(O)c1)C(=O)O | 0.211 |
| CCSCC[C@H](N)C(=O)O | 0.0588 |
| CCC(C)C(NC)C(=O)O (centres undefined) | 0.286 |
| CN(C)CCc1c[nH]c2ccc(CS(=O)(=O)N3CCCC3)cc12 | 0.277 |
| O=C(O)c1cc(=O)c2ccccc2[nH]1 | 0.116 |
| CCCCCCCCCCCC[C@@H](C(=O)O)[C@H](C)C(=O)O | 0.25 |
| CSCC[C@H](NC(=O)[C@H](Cc1c[nH]c2ccccc12)NC(=O)CCNC(=O)OC(C)(C)C)C(=O)N[C@@H](CC(=O)O)C(=O)N[C@@H](Cc1ccccc1)C(N)=O | 0.0952 |
| CC(C)NNC(=O)c1ccncc1 | 0.17 |
| O=C1c2cccc(O)c2C(=O)c2c(O)cccc21 | 0.0833 |
| CCOC(N)=O | 0.123 |
| CCN(CC)CCNC(=O)c1cc(Br)c(N)cc1OC | 0.244 |
| OC(CCN1CCCCC1)(c1ccccc1)c1ccccc1 | 0.093 |
